The record followed here is publication PMC10882573.

The chains behind the UniProt entries cited, without tags or fusion partners.
UniProt P02743, whole entry: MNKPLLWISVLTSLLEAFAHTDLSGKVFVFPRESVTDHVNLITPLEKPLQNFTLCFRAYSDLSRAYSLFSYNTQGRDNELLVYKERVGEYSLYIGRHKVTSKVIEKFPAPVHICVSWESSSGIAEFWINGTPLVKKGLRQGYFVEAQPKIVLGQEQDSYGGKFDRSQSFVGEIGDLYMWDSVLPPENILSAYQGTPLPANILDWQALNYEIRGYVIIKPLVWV

This data set has as its target serum amyloid P component (SAP), glycosylated (Homo sapiens) (UniProt P02743). The data set is described as follows: antibody-aptamer sandwich electrochemical assay (strep-POD/TMB). The settings on record: 1 uM aptamer, SAP captured by anti-SAP antibody, signal rises with SAP (linear 10-100 ng/mL); 1x PBS (0.1 M phosphate, 0.154 M NaCl, pH 7.4), room temperature, 30 min, 1 uM biotin-PSA-1; also in human serum; protein in a lysate after overexpression; residues 1-223; label: 5'-biotin; single-stranded DNA.

For at least one entry, the source does not settle the construct or the ends of the probe. Results from cells or extracts need not show a direct contact.

For the sequence “GGACGGTTGCGCTATATTTAACCAAAAGTCTGGATTAACA [PSA-1 aptamer]”, the binding result was “binds”.
